In article PMC6127852 (Journal of Enzyme Inhibition and Medicinal Chemistry, 2018):

System: ctDNA
Assay: Thermal melting (ΔTm) of ctDNA
Format: binding, calf
Details: from non-linear dependence of ΔTm on r; polynucleotide not given
Method: T m experiments were conducted with a Perkin Elmer Lambda 25 spectrophotometer in 1 cm quartz cuvettes. The absorbance of the DNA/RNA-compound complex was monitored at 260 nm as a function of temperature. The absorbance of the ligands was subtracted from every curve, and the absorbance scale was normalised. The ΔT m values were calculated by subtracting T m of the free nucleic acid from T m of the complex. Every reported ΔT m value was the average of at least two measurements. The error of ΔT m is ±0.5 °C. All data were graphed and analysed using Origin software version 9.0.
Denaturation experiments were carried out at different amounts of the compounds (r = 0.1, 0.3, 0.5, and 0.7 eq; r = [compound]/[polynucleotide]) with ctDNA and polyA-polyU.

SMILES | saturation of binding sites at ratio r
Cl.Cl.Clc1ccccc1-n1cc(COc2ccc(-c3nc4cc(C5=NCCN5)ccc4[nH]3)cc2)nn1 [Compound 9c, 5–(4,5-Dihydro-1H-imidazol-2-yl)-2–(4-((1–(2-chlorophenyl)-1H-1,2,3-triazol-4-yl)methoxy)phenyl)-1H-benz[d]imidazole dihydrochloride] | 0.3–0.5
Cl.Cl.c1ccc(SCn2cc(COc3ccc(-c4nc5cc(C6=NCCN6)ccc5[nH]4)cc3)nn2)cc1 [Compound 9e, 5–(4,5-Dihydro-1H-imidazol-2-yl)-2–(4-((1-(phenylthiomethyl)-1H-1,2,3-triazol-4-yl)methoxy)phenyl)-1H-benz[d]imidazole dihydrochloride] | 0.3–0.5
